Reference: PMC5090064, “Coordinated regulation of the ESCRT-III component CHMP4C by the chromosomal passenger complex and centralspindlin during cytokinesis” (Open Biology, 2016)
No constants are given. Whether binding was seen depends on the method and setting. In cells and extracts the contact can be indirect. A yes stands for co-enrichment or nearness to the bait. Other partners may have been found. Tags and fused reporters may be left off the sequences shown.

Protein sequences, listed by entry. Tags and fused reporters are not part of them.
UniProt Q8WUM4: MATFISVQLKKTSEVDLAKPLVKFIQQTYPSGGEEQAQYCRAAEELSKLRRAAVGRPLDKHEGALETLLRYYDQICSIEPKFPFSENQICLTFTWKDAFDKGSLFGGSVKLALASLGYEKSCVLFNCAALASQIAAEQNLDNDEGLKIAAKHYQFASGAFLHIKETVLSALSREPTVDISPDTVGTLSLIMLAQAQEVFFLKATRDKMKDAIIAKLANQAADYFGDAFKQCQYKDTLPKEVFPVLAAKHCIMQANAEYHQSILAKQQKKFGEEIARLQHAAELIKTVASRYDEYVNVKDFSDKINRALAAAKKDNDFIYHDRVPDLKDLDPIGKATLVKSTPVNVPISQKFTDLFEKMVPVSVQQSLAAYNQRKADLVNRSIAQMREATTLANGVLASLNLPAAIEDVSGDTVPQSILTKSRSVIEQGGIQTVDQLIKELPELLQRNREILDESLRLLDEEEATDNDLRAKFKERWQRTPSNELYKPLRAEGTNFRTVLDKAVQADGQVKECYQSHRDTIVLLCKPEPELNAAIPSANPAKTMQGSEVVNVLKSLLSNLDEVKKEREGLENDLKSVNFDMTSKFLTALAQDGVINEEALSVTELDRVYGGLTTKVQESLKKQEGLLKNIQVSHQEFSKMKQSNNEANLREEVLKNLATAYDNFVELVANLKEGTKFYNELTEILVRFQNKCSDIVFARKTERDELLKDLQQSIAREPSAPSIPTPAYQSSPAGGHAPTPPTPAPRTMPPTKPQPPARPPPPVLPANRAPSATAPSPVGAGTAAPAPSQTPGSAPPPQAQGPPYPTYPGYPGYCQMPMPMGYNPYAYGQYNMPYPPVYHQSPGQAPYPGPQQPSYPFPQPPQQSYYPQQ
UniProt Q96GD4: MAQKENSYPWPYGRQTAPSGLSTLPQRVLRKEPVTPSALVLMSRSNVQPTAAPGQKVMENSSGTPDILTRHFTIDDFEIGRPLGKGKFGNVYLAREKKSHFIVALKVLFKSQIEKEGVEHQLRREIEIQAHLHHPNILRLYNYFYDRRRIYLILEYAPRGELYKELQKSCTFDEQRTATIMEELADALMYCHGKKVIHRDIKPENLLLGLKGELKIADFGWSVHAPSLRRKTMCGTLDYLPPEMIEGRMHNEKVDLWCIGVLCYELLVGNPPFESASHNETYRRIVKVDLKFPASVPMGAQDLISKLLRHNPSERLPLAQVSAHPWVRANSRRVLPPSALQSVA
UniProt Q9NQS7: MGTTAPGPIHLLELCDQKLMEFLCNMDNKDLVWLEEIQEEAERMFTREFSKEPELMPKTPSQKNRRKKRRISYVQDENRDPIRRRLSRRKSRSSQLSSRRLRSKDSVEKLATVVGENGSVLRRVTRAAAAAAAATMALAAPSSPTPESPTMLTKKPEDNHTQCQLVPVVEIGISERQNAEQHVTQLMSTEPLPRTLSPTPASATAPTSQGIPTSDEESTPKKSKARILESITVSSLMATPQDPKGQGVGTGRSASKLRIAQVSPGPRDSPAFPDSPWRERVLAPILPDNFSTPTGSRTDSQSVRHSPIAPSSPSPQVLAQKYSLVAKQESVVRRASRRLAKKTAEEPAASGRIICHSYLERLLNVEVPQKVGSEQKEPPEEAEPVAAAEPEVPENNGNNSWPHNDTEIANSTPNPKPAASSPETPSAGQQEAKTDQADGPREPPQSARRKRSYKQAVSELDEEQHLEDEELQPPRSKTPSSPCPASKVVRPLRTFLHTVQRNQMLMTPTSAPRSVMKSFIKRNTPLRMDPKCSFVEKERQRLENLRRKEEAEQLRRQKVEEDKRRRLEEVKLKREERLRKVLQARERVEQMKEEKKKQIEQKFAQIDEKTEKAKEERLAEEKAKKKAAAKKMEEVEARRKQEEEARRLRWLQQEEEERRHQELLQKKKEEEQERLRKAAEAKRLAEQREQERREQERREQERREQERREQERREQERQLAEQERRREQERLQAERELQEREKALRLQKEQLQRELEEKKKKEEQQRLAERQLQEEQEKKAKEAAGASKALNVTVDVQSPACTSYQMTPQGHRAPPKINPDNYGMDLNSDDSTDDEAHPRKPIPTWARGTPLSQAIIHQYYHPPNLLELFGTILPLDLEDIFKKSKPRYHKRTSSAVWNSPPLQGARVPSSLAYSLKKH
UniProt P62136: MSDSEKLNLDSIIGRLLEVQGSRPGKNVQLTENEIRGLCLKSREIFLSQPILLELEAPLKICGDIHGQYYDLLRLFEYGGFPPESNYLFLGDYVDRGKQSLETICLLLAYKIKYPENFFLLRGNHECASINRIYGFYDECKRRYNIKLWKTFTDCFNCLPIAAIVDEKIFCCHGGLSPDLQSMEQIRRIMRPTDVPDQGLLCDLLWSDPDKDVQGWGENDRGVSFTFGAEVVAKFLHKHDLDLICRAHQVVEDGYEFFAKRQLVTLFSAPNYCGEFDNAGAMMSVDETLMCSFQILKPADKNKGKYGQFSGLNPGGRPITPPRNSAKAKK
UniProt P67775: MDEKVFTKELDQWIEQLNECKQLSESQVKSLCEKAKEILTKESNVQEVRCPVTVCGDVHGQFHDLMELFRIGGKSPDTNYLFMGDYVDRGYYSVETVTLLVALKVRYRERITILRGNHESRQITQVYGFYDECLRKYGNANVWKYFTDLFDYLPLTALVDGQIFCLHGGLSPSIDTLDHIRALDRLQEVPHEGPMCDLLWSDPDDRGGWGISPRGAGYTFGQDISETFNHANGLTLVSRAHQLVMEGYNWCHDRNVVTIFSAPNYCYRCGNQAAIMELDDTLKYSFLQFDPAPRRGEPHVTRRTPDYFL
UniProt P30153: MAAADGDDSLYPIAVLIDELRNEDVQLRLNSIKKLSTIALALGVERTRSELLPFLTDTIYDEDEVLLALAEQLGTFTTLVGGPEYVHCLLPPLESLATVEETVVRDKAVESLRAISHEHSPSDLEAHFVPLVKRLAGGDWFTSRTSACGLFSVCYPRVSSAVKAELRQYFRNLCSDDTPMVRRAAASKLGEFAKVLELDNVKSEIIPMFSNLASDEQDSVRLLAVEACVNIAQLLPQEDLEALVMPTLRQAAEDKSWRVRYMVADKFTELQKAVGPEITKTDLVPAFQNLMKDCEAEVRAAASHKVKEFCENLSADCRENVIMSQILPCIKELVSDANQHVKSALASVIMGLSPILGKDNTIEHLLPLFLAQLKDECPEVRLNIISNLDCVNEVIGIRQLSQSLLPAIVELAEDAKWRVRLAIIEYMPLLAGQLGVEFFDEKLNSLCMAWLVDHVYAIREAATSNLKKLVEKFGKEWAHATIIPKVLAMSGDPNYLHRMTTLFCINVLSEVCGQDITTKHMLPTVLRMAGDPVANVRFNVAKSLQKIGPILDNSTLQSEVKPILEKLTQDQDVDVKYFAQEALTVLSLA

T1: Flag::CHMP4C WT (human) (UniProt Q96CF2)
T1 sequence: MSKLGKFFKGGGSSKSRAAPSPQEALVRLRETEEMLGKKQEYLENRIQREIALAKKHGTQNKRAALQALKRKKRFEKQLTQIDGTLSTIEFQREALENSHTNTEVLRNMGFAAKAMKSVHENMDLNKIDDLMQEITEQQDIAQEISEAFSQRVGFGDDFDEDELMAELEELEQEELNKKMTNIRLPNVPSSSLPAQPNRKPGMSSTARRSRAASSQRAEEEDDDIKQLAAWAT


molecular target: T1, Flag::CHMP4C WT (human); test: affinity purification with mass spectrometry; anti-Flag M2 magnetic beads; extracts of HeLa Kyoto cells stably expressing Flag::CHMP4C WT synchronized in telophase; 150 mM NaCl, 100 mM KAc, 0.5% NP-40, 4°C; Flag alone as control

Row | Molecule | binding
1 | ALIX (ALG2-interacting protein X, also known as programmed cell death 6 interacting protein, PDCD6IP) (endogenous) (from UniProt Q8WUM4 1-868) | binds
2 | Aurora B (endogenous) (from UniProt Q96GD4 1-344) (enzyme) | binds
3 | INCENP (endogenous) (from UniProt Q9NQS7 1-918) | binds
4 | PP1 catalytic subunit (PPP1CA) (endogenous) (from UniProt P62136 1-330) (enzyme) | binds
5 | PP2A catalytic subunit (PP2CA) (endogenous) (from UniProt P67775 1-309) (enzyme) | binds
6 | PP2A regulatory subunit A (PPP2R1A) (endogenous) (from UniProt P30153 1-589) | binds
7 | KIF23/MKLP1 (endogenous) (protein, UniProt Q02241 1-960) MKSARAKTPRKPTVKKGSQTNLKDPVGVYCRVRPLGFPDQECCIEVINNTTVQLHTPEGYRLNRNGDYKETQYSFKQVFGTHTTQKELFDVVANPLVNDLIHGKNGLLFTYGVTGSGKTHTMTGSPGEGGLLPRCLDMIFNSIGSFQAKRYVFKSNDRNSMDIQCEVDALLERQKREAMPNPKTSSSKRQVDPEFADMITVQEFCKAEEVDEDSVYGVFVSYIEIYNNYIYDLLEEVPFDPIKPKPPQSKLLREDKNHNMYVAGCTEVEVKSTEEAFEVFWRGQKKRRIANTHLNRESSRSHSVFNIKLVQAPLDADGDNVLQEKEQITISQLSLVDLAGSERTNRTRAEGNRLREAGNINQSLMTLRTCMDVLRENQMYGTNKMVPYRDSKLTHLFKNYFDGEGKVRMIVCVNPKAEDYEENLQVMRFAEVTQEVEVARPVDKAICGLTPGRRYRNQPRGPVGNEPLVTDVVLQSFPPLPSCEILDINDEQTLPRLIEALEKRHNLRQMMIDEFNKQSNAFKALLQEFDNAVLSKENHMQGKLNEKEKMISGQKLEIERLEKKNKTLEYKIEILEKTTTIYEEDKRNLQQELETQNQKLQRQFSDKRRLEARLQGMVTETTMKWEKECERRVAAKQLEMQNKLWVKDEKLKQLKAIVTEPKTEKPERPSRERDREKVTQRSVSPSPVPLSSNYIAQISNGQQLMSQPQLHRRSNSCSSISVASCISEWEQKIPTYNTPLKVTSIARRRQQEPGQSKTCIVSDRRRGMYWTEGREVVPTFRNEIEIEEDHCGRLLFQPDQNAPPIRLRHRRSRSAGDRWVDHKPASNMQTETVMQPHVPHAITVSVANEKALAKCEKYMLTHQELASDGEIETKLIKGDIYKTRGGGQSVQFTDIETLKQESPNGSRKRRSSTVAPAQPDGAESEWTDVETRCSVAVEMRAGSQLGPGYQHHAQPKRKKP | binds
8 | MgcRacGAP/RacGAP1 (endogenous) (protein, UniProt Q9H0H5 1-632) MDTMMLNVRNLFEQLVRRVEILSEGNEVQFIQLAKDFEDFRKKWQRTDHELGKYKDLLMKAETERSALDVKLKHARNQVDVEIKRRQRAEADCEKLERQIQLIREMLMCDTSGSIQLSEEQKSALAFLNRGQPSSSNAGNKRLSTIDESGSILSDISFDKTDESLDWDSSLVKTFKLKKREKRRSTSRQFVDGPPGPVKKTRSIGSAVDQGNESIVAKTTVTVPNDGGPIEAVSTIETVPYWTRSRRKTGTLQPWNSDSTLNSRQLEPRTETDSVGTPQSNGGMRLHDFVSKTVIKPESCVPCGKRIKFGKLSLKCRDCRVVSHPECRDRCPLPCIPTLIGTPVKIGEGMLADFVSQTSPMIPSIVVHCVNEIEQRGLTETGLYRISGCDRTVKELKEKFLRVKTVPLLSKVDDIHAICSLLKDFLRNLKEPLLTFRLNRAFMEAAEITDEDNSIAAMYQAVGELPQANRDTLAFLMIHLQRVAQSPHTKMDVANLAKVFGPTIVAHAVPNPDPVTMLQDIKRQPKVVERLLSLPLEYWSQFMMVEQENIDPLHVIENSNAFSTPQTPDIKVSLLGPVTTPEHQLLKTPSSSSLSQRVRSTLTKNTPRFGSKSKSATNLGRQGNFFASPMLK | binds
9 | CHMP4B (endogenous) (protein, UniProt Q9H444 1-224) MSVFGKLFGAGGGKAGKGGPTPQEAIQRLRDTEEMLSKKQEFLEKKIEQELTAAKKHGTKNKRAALQALKRKKRYEKQLAQIDGTLSTIEFQREALENANTNTEVLKNMGYAAKAMKAAHDNMDIDKVDELMQDIADQQELAEEISTAISKPVGFGEEFDEDELMAELEELEQEELDKNLLEISGPETVPLPNVPSIALPSKPAKKKEEEDDDMKELENWAGSM | binds
10 | Borealin (endogenous) (protein, UniProt Q53HL2 1-280) MAPRKGSSRVAKTNSLRRRKLASFLKDFDREVEIRIKQIESDRQNLLKEVDNLYNIEILRLPKALREMNWLDYFALGGNKQALEEAATADLDITEINKLTAEAIQTPLKSAKTRKVIQVDEMIVEEEEEEENERKNLQTARVKRCPPSKKRTQSIQGKGKGKRSSRANTVTPAVGRLEVSMVKPTPGLTPRFDSRVFKTPGLRTPAAGERIYNISGNGSPLADSKEIFLTVPVGGGESLRLLASDLQRHSIAQLDPEALGNIKKLSNRLAQICSSIRTHK | binds
